This note sets out measurements from publication PMC7793965.

Sequences of proteins named here, by UniProt entry; tags and fusion partners are left off.
UniProt Q9CUN6: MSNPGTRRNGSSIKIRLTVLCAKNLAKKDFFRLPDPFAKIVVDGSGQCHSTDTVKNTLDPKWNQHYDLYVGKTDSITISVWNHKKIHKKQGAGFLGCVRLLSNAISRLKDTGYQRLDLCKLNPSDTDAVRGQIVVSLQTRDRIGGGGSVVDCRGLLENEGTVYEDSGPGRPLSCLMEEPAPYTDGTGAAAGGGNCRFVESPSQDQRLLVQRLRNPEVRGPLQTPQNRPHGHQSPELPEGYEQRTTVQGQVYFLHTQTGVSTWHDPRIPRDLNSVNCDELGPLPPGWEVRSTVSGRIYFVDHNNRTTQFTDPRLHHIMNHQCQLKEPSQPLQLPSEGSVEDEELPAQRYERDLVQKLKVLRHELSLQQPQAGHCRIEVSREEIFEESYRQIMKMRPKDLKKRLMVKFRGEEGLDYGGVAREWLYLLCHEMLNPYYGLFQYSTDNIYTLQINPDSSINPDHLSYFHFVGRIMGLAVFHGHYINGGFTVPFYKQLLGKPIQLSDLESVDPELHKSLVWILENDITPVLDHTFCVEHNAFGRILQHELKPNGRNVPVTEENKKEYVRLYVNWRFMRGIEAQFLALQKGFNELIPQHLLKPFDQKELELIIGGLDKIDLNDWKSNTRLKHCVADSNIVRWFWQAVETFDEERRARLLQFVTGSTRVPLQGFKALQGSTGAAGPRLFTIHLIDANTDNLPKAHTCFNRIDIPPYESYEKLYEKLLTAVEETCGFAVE
UniProt Q08775: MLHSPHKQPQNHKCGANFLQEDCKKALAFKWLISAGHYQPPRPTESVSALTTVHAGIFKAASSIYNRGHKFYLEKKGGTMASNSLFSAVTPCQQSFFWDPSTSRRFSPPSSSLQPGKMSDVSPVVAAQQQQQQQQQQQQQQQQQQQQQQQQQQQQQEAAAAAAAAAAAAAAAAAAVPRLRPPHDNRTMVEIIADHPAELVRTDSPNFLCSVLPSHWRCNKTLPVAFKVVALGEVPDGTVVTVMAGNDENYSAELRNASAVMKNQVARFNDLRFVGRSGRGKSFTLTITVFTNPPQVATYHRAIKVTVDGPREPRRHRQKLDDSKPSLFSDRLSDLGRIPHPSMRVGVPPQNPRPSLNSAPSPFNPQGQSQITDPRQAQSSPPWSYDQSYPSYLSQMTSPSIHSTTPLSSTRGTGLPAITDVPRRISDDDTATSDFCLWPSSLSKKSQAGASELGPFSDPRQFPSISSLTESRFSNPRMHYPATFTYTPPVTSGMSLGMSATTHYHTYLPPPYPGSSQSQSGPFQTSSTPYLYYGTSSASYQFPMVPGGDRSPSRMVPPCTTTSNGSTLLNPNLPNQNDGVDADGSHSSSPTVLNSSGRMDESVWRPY

Results are given in words; binding and its absence hold for the method and conditions named. In cells and extracts the contact can be indirect. Some entries that bind do so weakly or less than the wild type.

This test deals with FLAG-labeled SMURF1 (Smad ubiquitination regulatory factor-1) (UniProt Q9CUN6). Description: co-IP; MC3T3-E1C cells transfected with FLAG-labeled SMURF1 and HA-labeled Runx2, 24 h after transfection; anti-FLAG or anti-Myc-conjugated agarose (30 μl/sample); precipitates probed with antibodies against Myc and HA tags.

Turning to “HA-labeled Runx2 (Runt-related transcription factor 2) (from UniProt Q08775 1-607)”, the binding result was “binds”.
